PubChem BioAssay AID1159578 | Peter MacCallum Cancer Centre | 2015
Aim: 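Knock-downs that alter how fast lymphatic endothelial cells migrate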 (primary screen). Cells: human lymphatic endothelial cells. Reagents: siRNA pool against human genes, 40 nM. Timing: 48 h after transfection. Measurement: 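Cells stained with dye and imaged after a scratch; covered wound area and nuclei counted, duplicates averaged, migration set against mock wells and turned into a robust z-score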. Reading the numbers: migration robust z-score: higher = faster migration into the scratch; migration relative to mock: higher = more scratch area covered than mock; nuclei per well: higher = more cells in the well. Rule for the call: 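Migration changed when robust z exceeds 2 or falls below -2 and mean nuclei number is at least 3300; otherwise not called changed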. Calls: active = migration changed; inactive = no migration change, or too few cells.
In all, the deposit lists about 18,000 reagents; this is an unselected part. About 1,030 of all reagents (5.7%) were called active. 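Inactive calls also include pools with fewer than 3300 nuclei, whose migration was not assessed.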 The raw values are shown without normalisation.

no.	gene symbol	migration robust z-score	migration class with cell-count check	migration relative to mock	nuclei per well, duplicate mean	outcome
1	PPP2CA (protein phosphatase 2 catalytic subunit alpha)	-0.52	migration z between -2 and 2; enough cells	0.7	3676	inactive
2	NHEJ1 (non-homologous end joining factor 1)	0.31	migration z between -2 and 2; enough cells	0.86	6344	inactive
3	LOC652436 (retired record)	-0.62	migration z between -2 and 2; enough cells	0.68	4849	inactive
4	PIWIL1 (piwi like RNA-mediated gene silencing 1)	0.88	migration z between -2 and 2; enough cells	0.98	6177	inactive
5	NDOR1 (NADPH dependent diflavin oxidoreductase 1)	0.29	migration z between -2 and 2; enough cells	0.86	6996	inactive
6	MRPL3 (mitochondrial ribosomal protein L3)	1.68	migration z between -2 and 2; enough cells	1.32	5832	inactive
7	COPB2 (coat protein complex I subunit beta 2)	-2.08	migration z below -2; enough cells	0.34	4802	active
8	TMEM50A (transmembrane protein 50A)	0.5	migration z between -2 and 2; enough cells	1.02	6924	inactive
9	MND1 (meiotic nuclear divisions 1)	0.76	migration z between -2 and 2; enough cells	1.08	6433	inactive
10	TBC1D26 (TBC1 domain family member 26)	0.42	migration z between -2 and 2; enough cells	1	4651	inactive
11	FAM219A (family with sequence similarity 219 member A)	0.08	migration z between -2 and 2; enough cells	0.9	5284	inactive
12	SMARCC1 (SWI/SNF related BAF chromatin remodeling complex subunit C1)	0.52	migration z between -2 and 2; enough cells	0.9	6482	inactive
13	ATOH1 (atonal bHLH transcription factor 1)	-0.37	migration z between -2 and 2; enough cells	0.78	6118	inactive
14	DEFB116 (defensin beta 116)	0.06	migration z between -2 and 2; enough cells	0.9	4032	inactive
15	ZNF595 (zinc finger protein 595)	-1.23	migration z between -2 and 2; enough cells	0.56	5664	inactive
16	RND2 (Rho family GTPase 2)	-1.5	migration z between -2 and 2; enough cells	0.52	4802	inactive
17	NECTIN3 (nectin cell adhesion molecule 3)	0.73	migration z between -2 and 2; enough cells	0.94	5014	inactive
18	SFRP5 (secreted frizzled related protein 5)	0.75	migration z between -2 and 2; enough cells	0.95	5636	inactive
19	PAQR6 (progestin and adipoQ receptor family member 6)	-0.44	migration z between -2 and 2; enough cells	0.78	5444	inactive
20	RASEF (RAS and EF-hand domain containing)	0.98	migration z between -2 and 2; enough cells	1.14	5544	inactive
21	CWF19L2 (CWF19 like cell cycle control factor 2)	-0.95	migration z between -2 and 2; enough cells	0.64	5412	inactive
22	ARID3B (AT-rich interaction domain 3B)	-1.5	migration z between -2 and 2; enough cells	0.5	3914	inactive
23	ST18 (ST18 C2H2C-type zinc finger transcription factor)	-0.18	migration z between -2 and 2; enough cells	0.84	6226	inactive
